# Paper PMC11157765
# Sequences of proteins named here, by UniProt entry; tags and fusion partners are left off. Residues count along the entry.
# UniProt Q6UX06, residues 21-510: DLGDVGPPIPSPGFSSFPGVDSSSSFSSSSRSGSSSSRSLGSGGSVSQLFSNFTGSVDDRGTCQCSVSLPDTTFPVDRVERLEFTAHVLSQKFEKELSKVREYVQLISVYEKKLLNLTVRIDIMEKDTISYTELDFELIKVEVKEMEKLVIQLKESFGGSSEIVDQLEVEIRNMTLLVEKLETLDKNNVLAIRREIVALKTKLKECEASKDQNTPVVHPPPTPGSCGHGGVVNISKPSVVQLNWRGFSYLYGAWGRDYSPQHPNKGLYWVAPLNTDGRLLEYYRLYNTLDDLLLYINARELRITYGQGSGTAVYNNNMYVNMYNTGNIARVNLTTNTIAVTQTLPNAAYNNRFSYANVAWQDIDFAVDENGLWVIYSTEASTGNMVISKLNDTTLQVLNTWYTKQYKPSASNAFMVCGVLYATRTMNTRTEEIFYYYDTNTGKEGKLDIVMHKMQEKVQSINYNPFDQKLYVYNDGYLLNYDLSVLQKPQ
# UniProt P35579: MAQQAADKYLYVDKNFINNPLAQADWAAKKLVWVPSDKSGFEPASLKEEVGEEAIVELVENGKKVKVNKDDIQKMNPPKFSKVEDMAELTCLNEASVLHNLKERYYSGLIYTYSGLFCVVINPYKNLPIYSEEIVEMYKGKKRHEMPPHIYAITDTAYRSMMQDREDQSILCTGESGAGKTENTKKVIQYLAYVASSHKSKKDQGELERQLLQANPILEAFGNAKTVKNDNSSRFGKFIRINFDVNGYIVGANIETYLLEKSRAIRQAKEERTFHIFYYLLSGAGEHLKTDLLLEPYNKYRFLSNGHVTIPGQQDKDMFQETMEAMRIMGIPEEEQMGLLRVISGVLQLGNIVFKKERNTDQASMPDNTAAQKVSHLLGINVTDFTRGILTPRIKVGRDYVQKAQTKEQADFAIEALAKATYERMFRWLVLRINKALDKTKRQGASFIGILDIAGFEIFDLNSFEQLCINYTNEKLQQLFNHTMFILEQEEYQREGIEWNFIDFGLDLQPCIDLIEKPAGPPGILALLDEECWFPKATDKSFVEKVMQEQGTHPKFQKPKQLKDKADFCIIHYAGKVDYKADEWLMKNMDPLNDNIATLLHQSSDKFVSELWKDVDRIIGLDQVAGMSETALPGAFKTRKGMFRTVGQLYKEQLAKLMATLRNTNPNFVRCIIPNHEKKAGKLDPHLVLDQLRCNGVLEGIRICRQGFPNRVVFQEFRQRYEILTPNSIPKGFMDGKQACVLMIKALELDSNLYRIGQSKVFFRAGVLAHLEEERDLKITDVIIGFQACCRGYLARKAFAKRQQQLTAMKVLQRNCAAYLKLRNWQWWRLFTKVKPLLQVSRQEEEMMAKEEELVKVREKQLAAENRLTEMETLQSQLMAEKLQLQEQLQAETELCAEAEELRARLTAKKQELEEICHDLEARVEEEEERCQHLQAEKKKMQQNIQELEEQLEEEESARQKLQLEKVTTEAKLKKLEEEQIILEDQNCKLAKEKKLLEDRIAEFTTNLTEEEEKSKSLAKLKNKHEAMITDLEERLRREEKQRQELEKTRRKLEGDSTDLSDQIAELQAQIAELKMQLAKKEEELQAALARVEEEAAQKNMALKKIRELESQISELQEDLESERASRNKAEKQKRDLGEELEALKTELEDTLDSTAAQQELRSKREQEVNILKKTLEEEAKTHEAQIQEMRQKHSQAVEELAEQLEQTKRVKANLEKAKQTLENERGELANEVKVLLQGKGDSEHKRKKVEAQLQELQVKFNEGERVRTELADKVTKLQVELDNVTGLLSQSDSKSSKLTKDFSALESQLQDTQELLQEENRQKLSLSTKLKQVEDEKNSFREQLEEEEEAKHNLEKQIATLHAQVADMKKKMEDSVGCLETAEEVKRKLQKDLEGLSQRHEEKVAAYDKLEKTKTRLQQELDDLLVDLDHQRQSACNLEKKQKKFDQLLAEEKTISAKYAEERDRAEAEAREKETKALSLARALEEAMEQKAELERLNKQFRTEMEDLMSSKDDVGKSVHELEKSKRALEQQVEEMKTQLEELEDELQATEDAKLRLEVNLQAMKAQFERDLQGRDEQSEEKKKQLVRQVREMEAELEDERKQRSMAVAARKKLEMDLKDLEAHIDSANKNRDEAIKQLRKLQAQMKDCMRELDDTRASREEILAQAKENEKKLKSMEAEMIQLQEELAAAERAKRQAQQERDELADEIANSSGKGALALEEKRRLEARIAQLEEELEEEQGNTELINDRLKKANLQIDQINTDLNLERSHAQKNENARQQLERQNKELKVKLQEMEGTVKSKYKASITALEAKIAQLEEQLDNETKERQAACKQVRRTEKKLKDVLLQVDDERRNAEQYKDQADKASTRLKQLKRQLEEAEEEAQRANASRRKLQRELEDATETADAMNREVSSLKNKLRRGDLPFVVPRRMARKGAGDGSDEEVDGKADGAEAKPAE
# Results are given in words; binding and its absence hold for the method and conditions named. Binding seen in cells or lysates may run through a third protein. Some results given as binding are weak or reduced against the parent protein; the word gives no strength.
# How the values were obtained:
# [1] = target: Olfactomedin-4 (OLFM4) (UniProt Q6UX06); experiment: co-IP; cell lysates (cells not stated); forward IP with the OLFM4 antibody, reverse IP with the MYH9 antibody; Protein A/G magnetic beads; Western Blot
# [2] = target: Myosin heavy chain 9 (MYH9) (human (endogenous in GES-1)) (UniProt P35579); experiment: as above
binding [1],binding [2],Substance
binds,–,Myosin heavy chain 9 (MYH9) (from UniProt P35579 1-1960)
–,binds,Olfactomedin-4 (OLFM4) (from UniProt Q6UX06 21-510)
